Laboratory results taken from paper PMC8972991.

Biological target: T1, Snakin-2 (StSN2) (potato (endogenous in tubers)) (UniProt Q93X17)
T1 sequence: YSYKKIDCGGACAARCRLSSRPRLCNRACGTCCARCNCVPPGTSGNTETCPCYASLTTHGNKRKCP
Assay: affinity purification with mass spectrometry; CoIP/MS screen for proteins interacting with StSN2; gel pieces from the CoIP after SDS-PAGE digested with trypsin, MS/MS (Orbitrap); precipitating antibody of the screen not stated

Cytoplasmic glyceraldehyde-3-phosphate dehydrogenase 1 (StGAPC1) (potato (endogenous in tubers)) (enzyme)
binding: binds

These are yes or no findings as the source states them, for the method shown. Binding seen in cells or lysates may run through a third protein. A yes stands for co-enrichment or nearness to the bait. Other partners may have been found.
